Reference: PMC6538776, “The Bacterial DNA Binding Protein MatP Involved in Linking the Nucleoid Terminal Domain to the Divisome at Midcell Interacts with Lipid Membranes” (mBio, 2018)

Biological target: T1, MatP (Escherichia coli) (UniProt P0A8N0)
T1 sequence (looked up, limits assumed): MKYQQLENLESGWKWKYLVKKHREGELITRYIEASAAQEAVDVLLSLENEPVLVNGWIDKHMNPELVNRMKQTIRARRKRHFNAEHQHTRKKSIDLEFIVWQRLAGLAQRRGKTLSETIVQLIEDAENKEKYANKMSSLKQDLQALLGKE
Assay: fluorescence anisotropy
Details: 500 mM KCl, interaction greatly hindered; 50 mM Tris-HCl, 300 mM KCl, 5 mM MgCl2, pH 7.5; temperature not stated; matS-Fl 10 nM in anisotropy titrations; recombinant protein; protein details: untagged (N-terminal His6 removed by thrombin); label: 5'-fluorescein on sense strand

Does “AAAGTGACACTGTCACCTT (double strand) [matS-Fl (matS19)]” bind?
Result: binds more weakly

The exact form of at least one protein or probe is not confirmed. The comparison behind a weaker result is the experiment's own reference, which may not be listed here. Tags and fusion partners may be left off the protein sequences shown.
